Measurements: publication doi:10.1101/2023.05.12.540614
No constants are given. Whether binding was seen depends on the method and setting. Binding seen in cells or lysates may run through a third protein. Some entries that bind do so weakly or less than the wild type.

Chains of the proteins cited; added tags and fusions are not shown.
UniProt Q04206: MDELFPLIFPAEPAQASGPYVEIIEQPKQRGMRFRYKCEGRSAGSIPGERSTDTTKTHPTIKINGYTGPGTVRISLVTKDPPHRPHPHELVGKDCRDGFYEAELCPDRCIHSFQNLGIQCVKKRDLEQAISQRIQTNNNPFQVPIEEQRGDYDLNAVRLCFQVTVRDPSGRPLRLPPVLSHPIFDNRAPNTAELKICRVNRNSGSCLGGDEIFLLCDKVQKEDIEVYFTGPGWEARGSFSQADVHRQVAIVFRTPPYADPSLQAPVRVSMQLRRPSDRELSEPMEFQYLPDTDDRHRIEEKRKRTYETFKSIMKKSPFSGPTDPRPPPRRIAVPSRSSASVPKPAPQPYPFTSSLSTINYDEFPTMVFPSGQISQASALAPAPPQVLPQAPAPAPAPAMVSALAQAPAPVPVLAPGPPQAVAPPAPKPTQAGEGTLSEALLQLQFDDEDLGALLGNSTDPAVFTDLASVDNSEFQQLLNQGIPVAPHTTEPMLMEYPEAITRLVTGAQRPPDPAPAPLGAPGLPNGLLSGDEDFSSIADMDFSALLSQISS

Target: T1, TERF2IP (human (endogenous in HUVEC)) (UniProt Q9NYB0)
T1 sequence: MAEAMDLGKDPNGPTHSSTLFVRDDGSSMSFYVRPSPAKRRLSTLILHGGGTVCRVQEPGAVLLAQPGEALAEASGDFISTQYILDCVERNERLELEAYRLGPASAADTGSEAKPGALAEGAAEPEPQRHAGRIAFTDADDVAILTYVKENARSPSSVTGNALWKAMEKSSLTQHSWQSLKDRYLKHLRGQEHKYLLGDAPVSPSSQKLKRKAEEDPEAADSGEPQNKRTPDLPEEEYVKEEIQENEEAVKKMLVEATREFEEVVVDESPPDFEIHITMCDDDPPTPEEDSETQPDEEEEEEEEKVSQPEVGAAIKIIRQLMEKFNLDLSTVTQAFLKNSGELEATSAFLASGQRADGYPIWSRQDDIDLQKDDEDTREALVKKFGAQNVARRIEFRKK
Assay: co-IP

binding: binds
Substance: p65 subunit of NF-κB (from UniProt Q04206 1-551)
